Library screening results

Mtb growth Cornell: 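Whole-cell assay for inhibitors of Mycobacterium tuberculosis growth, labelled Cornell in the record; the read-out is not stated. The concentration is filed as 10 mM, unlikely as a test dose, so the dose is not known. The record gives no direction; compounds strong in two other growth screens of this library score well above the rest, so higher reads as stronger inhibition. About 53,000 compounds were tested under these conditions; 1.7% (about 900) showed 50% or more at least once.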
Mtb heat-shock: 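Assay on Mycobacterium tuberculosis, filed only as a heat shock assay from Cornell; the read-out is not stated. The concentration is filed as 10 mM, unlikely as a test dose, so the dose is not known. The record gives no direction; compounds that gave an IC50 in retests scored well above the rest, so higher reads as stronger inhibition. Size under these conditions: about 69,000 compounds, about 930 of them at 50% or above in at least one test.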

Results are given as percent effect. The record does not define 0% and 100%; most values in the screen are far below 50% and negative numbers occur (in some assays of this library far below -100). The compounds are a random part of those screened. A dash means the value is not listed here; it may have been measured.

| # | Compound | Mtb growth Cornell | Mtb heat-shock |
|---|---|---|---|
| 1 | `O=C(N1CCCCC1)N1CCN(CC(O)c2ccc(F)cc2)CC1` (stereo not given) | - | 10.07 |
| 2 | `CC(C)Sc1ccc(C(C)Nc2nc3c(cnn3C)c(=O)[nH]2)cc1` (stereo not given) | 64.6 | 14.59 |
| 3 | `CN(C)Cc1ccnc(C2CN(Cc3c(F)cccc3F)CCO2)n1` (stereo not given) | 13.28 | 4.679 |
| 4 | `CCN1CCC(c2cncc(N(C)C)n2)CC1` | - | 4.335 |
| 5 | `COC(=O)c1cccc(CN(C)Cc2ncnn2C)c1C#N` | - | -13.91 |
| 6 | `CNc1ccc(CC2CCCN(C(=O)c3cnccn3)C2)nn1` (stereo not given) | - | -17.19 |
| 7 | `N#Cc1ccc(OC2CCN(C(=O)Cc3cccs3)CC2)nc1` | 24.57 | 0.1457 |
| 8 | `Cc1ccc(S(=O)(=O)Nc2ccc(C)c(C(=O)O)c2)s1` | -27.59 | -0.8443 |
| 9 | `Cc1cccc(CN2CCC23CCCNC3)n1` (stereo not given) | 19.15 | -6.282 |
| 10 | `CN(C)CC(=O)N1CCc2sc(C(=O)NCC3CC3)cc21.O=C(O)C(F)(F)F` | 26.2 | -9.971 |
| 11 | `CCOCC1CN(CCc2ccccc2)Cc2c1cnn2C` (stereo not given) | -14.19 | -13.65 |
| 12 | `Cc1ccc(CC(NC(=O)CCS(C)(=O)=O)c2ccccn2)cc1` (stereo not given) | -23.1 | 10.32 |
| 13 | `[H][C@@]12CS(=O)(=O)C[C@]1([H])N(Cc1nccn1C)CCN2Cc1ccncc1` | - | -12.38 |
| 14 | `CCO[C@@H]1CCN(C(=O)c2cscn2)[C@@H]1Cc1cnn(C)c1` | - | 7.486 |
| 15 | `O=C(O)C(F)(F)F.[H][C@@]12CN(C(=O)C3CCOCC3)C[C@@]1([H])N(Cc1ccncc1)C(=O)CO2` | 33.42 | -47.84 |
| 16 | `Cn1ncc2c(N3CCC3)nc(-c3ccncc3)nc21` | -1.441 | 4.975 |
| 17 | `Cc1ccc(C(=O)N2CCCN(Cc3cscn3)CC2)o1` | - | 29.39 |
| 18 | `CCn1nc(C(C)C)cc1C(=O)N1CCOc2ccc(OC)cc21` | - | 9.642 |
| 19 | `CN(CC(=O)Nc1ccon1)S(=O)(=O)c1cc(Cl)ccc1Cl` | -21.56 | -28.22 |
| 20 | `COC1CCN(CC(=O)NCc2ccc(OCC(N)=O)cc2)CC1` | 9.797 | 9.365 |
| 21 | `CC(C)n1ccnc1CN1CCOC(C)(C(=O)N2CCOCC2)C1` (stereo not given) | -49.8 | -11.23 |
| 22 | `CN(Cc1cscn1)C1CCCN(c2cccnn2)C1` (stereo not given) | -36.37 | -19.55 |
| 23 | `COc1cccc(C(=O)Nc2n[nH]c(C3CCCO3)n2)c1` (stereo not given) | 12.47 | -20.35 |
| 24 | `NC(=O)c1cc(-c2cccc(C(=O)O)c2)cs1` | 34.61 | -4.326 |
| 25 | `O=C(Cc1csc(-c2ccco2)n1)N1CCSCC1` | -12.14 | -1.739 |
| 26 | `CC(C)Cc1nc(CN(C)CCOc2ccccc2F)no1` | - | -4.372 |
| 27 | `Cc1cc(C(=O)N2CCC3(CC2)C(=O)N(C)CCN3CC2CC2)c(C)o1.O=C(O)C(F)(F)F` | -5.532 | 8.516 |
| 28 | `COc1ccc(CNC(=O)Cc2csc(C(C)=O)c2)cc1` | - | 3.738 |
| 29 | `CC(C)C(=O)Nc1cccc(CNC(=O)CSCc2ccccn2)c1` | 8.284 | 12.56 |
| 30 | `Cc1ccc(CN2CCCC3(CCCN3S(C)(=O)=O)C2)s1.O=C(O)C(F)(F)F` (stereo not given) | -0.934 | 1.796 |
| 31 | `CC(C)c1ncc2c(n1)CN(Cc1nc(Cc3ccccc3)no1)CC2` | 46.15 | 21.5 |
| 32 | `Cc1nc2sccn2c1CNc1cc(C(=O)O)ccc1F` | - | -15.69 |
| 33 | `OCCCNC1CCc2cc3c(cc21)OCCO3` (stereo not given) | 26.85 | -3.661 |
| 34 | `Cc1nnc2n1CCN(C(=O)c1cc(Cl)c(Br)[nH]1)C2` | - | 9.939 |
| 35 | `CCCNC(=O)C(C)Nc1cccc(Oc2ccc(C#N)cn2)c1` (stereo not given) | - | 5.206 |
| 36 | `Nc1nc2c(c(=O)[nH]1)CCN(C(=O)c1ccccc1N1CCCC1)C2` | 23.91 | -12.08 |
| 37 | `Fc1ccccc1CN1CCCN(c2ccc3cc[nH]c3n2)CC1` | 55.73 | -17.93 |
| 38 | `CN(C)CC1(O)CCN(S(=O)(=O)c2ccc(Cl)cc2)C1` (stereo not given) | -28.23 | -29.06 |
| 39 | `[H][C@@]12C[C@H](C(=O)NC3CCC3)[C@@]([H])(CN(C(=O)Nc3ccc(CC)cc3)C1)O2` | -29.65 | 21.91 |
| 40 | `COC(=O)c1sc2cccc(F)c2c1CNC(=O)C1CC1` | - | 9.099 |
| 41 | `COc1cc(C(=O)NC(C)C)nc2c(C)cc(F)cc12` | -1.892 | -21.1 |
| 42 | `Cc1noc(C)c1CC(=O)NCc1ccnc(OCC(F)(F)F)c1` | - | -12.06 |
| 43 | `Cc1ccc2c(n1)N(C)CCN(C(=O)NC1CC1)C2.O=C(O)C(F)(F)F` | -0.6144 | -10.95 |
| 44 | `Cc1cs/c(=N\C(=O)c2c3c(nc4onc(C)c24)CCC3)[nH]1` | 37.19 | -0.1888 |
| 45 | `CC(CNC(=O)N1CCN(Cc2ccon2)CC1)N(C)C1CC1` (stereo not given) | 8.435 | 14.06 |
| 46 | `Cn1cccc1CN1CCC2(CC1)CN(c1ncccn1)CCO2.O=C(O)C(F)(F)F` | 13.4 | -29.71 |
| 47 | `CCCNC(=O)CSCc1ccc(S(=O)(=O)N(C)C)o1` | -1.585 | 11.53 |
| 48 | `O=C(N1CCC2(CC1)[C@H](O)C[C@@H]2O)C1(c2ccccc2F)CC1` | 2.928 | -3.15 |
| 49 | `COC(=O)N1CCc2ccccc2C1C(=O)NCc1ccccn1` (stereo not given) | 11.62 | -4.473 |
| 50 | `Brc1cc2c(cc1CN1CCC(N3CCCCC3)CC1)OCCO2` | 12.91 | 26.96 |

The first 4 entries again:

| Compound | Mtb growth Cornell | Mtb heat-shock |
|---|---|---|
| `O=C(N1CCCCC1)N1CCN(CC(O)c2ccc(F)cc2)CC1` (stereo not given) | - | 10.07 |
| `CC(C)Sc1ccc(C(C)Nc2nc3c(cnn3C)c(=O)[nH]2)cc1` (stereo not given) | 64.6 | 14.59 |
| `CN(C)Cc1ccnc(C2CN(Cc3c(F)cccc3F)CCO2)n1` (stereo not given) | 13.28 | 4.679 |
| `CCN1CCC(c2cncc(N(C)C)n2)CC1` | - | 4.335 |

From ChEMBL document CHEMBL3988442, “University of Dundee, Small-Polar-MMV Screening Library” (2021).